Here are results for one substance from article PMC12266109.

These are yes or no findings as the source states them, for the method shown. In cells and extracts the contact can be indirect. Binding can be weak; no strength is given. Tags and fused reporters may be left off the sequences shown.

The target of the assay is T1, FLAG-tagged TSC22D2 (UniProt O75157).
T1 sequence: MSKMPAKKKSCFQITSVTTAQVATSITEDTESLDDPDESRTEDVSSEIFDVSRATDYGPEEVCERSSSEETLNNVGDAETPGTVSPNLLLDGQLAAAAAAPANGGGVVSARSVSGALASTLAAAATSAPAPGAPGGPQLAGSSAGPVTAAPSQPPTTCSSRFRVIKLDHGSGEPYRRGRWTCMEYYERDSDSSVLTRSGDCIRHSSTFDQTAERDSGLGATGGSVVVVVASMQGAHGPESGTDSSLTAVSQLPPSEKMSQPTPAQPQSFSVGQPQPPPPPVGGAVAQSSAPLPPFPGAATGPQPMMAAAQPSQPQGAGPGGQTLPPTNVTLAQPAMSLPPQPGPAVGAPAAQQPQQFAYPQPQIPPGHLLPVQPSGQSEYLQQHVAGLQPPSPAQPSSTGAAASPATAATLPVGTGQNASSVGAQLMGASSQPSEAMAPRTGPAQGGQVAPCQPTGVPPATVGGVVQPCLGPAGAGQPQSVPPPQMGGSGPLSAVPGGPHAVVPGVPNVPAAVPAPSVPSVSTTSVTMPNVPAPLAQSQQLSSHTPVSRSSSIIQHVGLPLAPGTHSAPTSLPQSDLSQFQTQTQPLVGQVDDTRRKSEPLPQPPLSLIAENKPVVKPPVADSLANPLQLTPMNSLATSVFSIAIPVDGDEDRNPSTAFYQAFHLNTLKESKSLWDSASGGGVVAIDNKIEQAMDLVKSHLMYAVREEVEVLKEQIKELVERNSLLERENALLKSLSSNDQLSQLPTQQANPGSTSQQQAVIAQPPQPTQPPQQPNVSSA
Description: co-IP; lysates of transfected HEK293 cells; FLAG-tagged TSC22D2 immunoprecipitated (FLAG M2 magnetic beads), TSC22D3-V5 detected by immunoblot.

Take TSC22D3-V5: the binding result is on record as “binds”.
